PubChem BioAssay AID743454 | Peter MacCallum Cancer Centre, 2014
The deposit covers about 18,000 reagents; this is a random part of them. Of all reagents, 450 (2.5%) were called active. 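Single biological run; no consistent viability z cut-off exists, so the class columns, not z-scores, define the calls.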 No sequences are given here.

Purpose: 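Knock-downs lowering viability or raising caspase 3/7 activity in vorinostat-treated resistant cells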 (primary screen)
Cells: human HCT116-VR colon cancer cells, selected for vorinostat resistance
Reagent: siRNA pool against human genes, 40 nM siRNA pool
Timing: vorinostat for 24 h, read-out about 72 h after transfection
Treatment: vorinostat at 2.5 µM final
Measurement: 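Cell viability by CellTiter-Fluor and caspase 3/7 activity by luminescence, each scaled to mock wells per plate, duplicates averaged, then robust z-scored over all plates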
Reading the numbers: viability robust z-score: higher = more viable cells than screen typical; caspase robust z-score: higher = more caspase 3/7 activity than screen typical
Active means: 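a knock-down is a hit when classed RV1 or RV2 for lowered viability, or CA1 or CA2 for caspase activation; those lethal without drug were dropped; hits were retested singly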

NNMT (nicotinamide N-methyltransferase)
- viability hit class: no change
- caspase hit class: no change
- viability robust z-score: -2.72
- caspase robust z-score: 3.62
- Call: inactive

ATP2A2
- viability hit class: no change
- caspase hit class: no change
- viability robust z-score: 1
- caspase robust z-score: -0.95
- Call: inactive

EPM2A (EPM2A glucan phosphatase, laforin)
- viability hit class: no change
- caspase hit class: no change
- viability robust z-score: -0.14
- caspase robust z-score: -0.55
- Call: inactive

OR2U1P (olfactory receptor family 2 subfamily U member 1 pseudogene)
- viability hit class: no change
- caspase hit class: no change
- viability robust z-score: 0.06
- caspase robust z-score: -0.02
- Call: inactive

HGS (hepatocyte growth factor-regulated tyrosine kinase substrate)
- viability hit class: no change
- caspase hit class: no change
- viability robust z-score: -0.16
- caspase robust z-score: -0.17
- Call: inactive

APOBEC3A (apolipoprotein B mRNA editing enzyme catalytic subunit 3A)
- viability hit class: no change
- caspase hit class: no change
- viability robust z-score: -1.5
- caspase robust z-score: -1
- Call: inactive

ETF1 (eukaryotic translation termination factor 1)
- viability hit class: no change
- caspase hit class: no change
- viability robust z-score: -2.67
- caspase robust z-score: -0.29
- Call: inactive

XCL2 (X-C motif chemokine ligand 2)
- viability hit class: no change
- caspase hit class: no change
- viability robust z-score: 0.68
- caspase robust z-score: 1.01
- Call: inactive

NPR1 (natriuretic peptide receptor 1)
- viability hit class: no change
- caspase hit class: no change
- viability robust z-score: 0.52
- caspase robust z-score: -0.25
- Call: inactive

ARHGEF12 (Rho guanine nucleotide exchange factor 12)
- viability hit class: no change
- caspase hit class: no change
- viability robust z-score: -0.52
- caspase robust z-score: -0.04
- Call: inactive

ADPRS (ADP-ribosylserine hydrolase)
- viability hit class: no change
- caspase hit class: no change
- viability robust z-score: 1.12
- caspase robust z-score: 0.72
- Call: inactive

ZNF875 (zinc finger protein 875)
- viability hit class: no change
- caspase hit class: no change
- viability robust z-score: 0.61
- caspase robust z-score: -0.87
- Call: inactive

NOG (noggin)
- viability hit class: no change
- caspase hit class: no change
- viability robust z-score: -1.52
- caspase robust z-score: 4.08
- Call: inactive

ASB11 (ankyrin repeat and SOCS box containing 11)
- viability hit class: no change
- caspase hit class: no change
- viability robust z-score: -1
- caspase robust z-score: 0.73
- Call: inactive

TFB2M (transcription factor B2, mitochondrial)
- viability hit class: no change
- caspase hit class: no change
- viability robust z-score: 0.99
- caspase robust z-score: -0.92
- Call: inactive

SELENOF (selenoprotein F)
- viability hit class: no change
- caspase hit class: no change
- viability robust z-score: 0.76
- caspase robust z-score: -0.16
- Call: inactive

OPRL1 (opioid related nociceptin receptor 1)
- viability hit class: no change
- caspase hit class: no change
- viability robust z-score: 0.37
- caspase robust z-score: 1.21
- Call: inactive

WASF3 (WASP family member 3)
- viability hit class: no change
- caspase hit class: no change
- viability robust z-score: 2.06
- caspase robust z-score: 0.1
- Call: inactive

EPG5 (ectopic P-granules 5 autophagy tethering factor)
- viability hit class: no change
- caspase hit class: no change
- viability robust z-score: -0.26
- caspase robust z-score: 2.12
- Call: inactive

COPB2 (coat protein complex I subunit beta 2)
- viability hit class: no change
- caspase hit class: no change
- viability robust z-score: -3.95
- caspase robust z-score: 3.3
- Call: inactive

ZBTB22 (zinc finger and BTB domain containing 22)
- viability hit class: no change
- caspase hit class: no change
- viability robust z-score: -1.14
- caspase robust z-score: 2.75
- Call: inactive

ANKS1A (ankyrin repeat and sterile alpha motif domain containing 1A)
- viability hit class: no change
- caspase hit class: no change
- viability robust z-score: -1.82
- caspase robust z-score: 2.52
- Call: inactive

IL32 (interleukin 32)
- viability hit class: no change
- caspase hit class: no change
- viability robust z-score: 0.43
- caspase robust z-score: -0.28
- Call: inactive

H1-8 (H1.8 linker histone)
- viability hit class: no change
- caspase hit class: no change
- viability robust z-score: -0.96
- caspase robust z-score: -0.59
- Call: inactive

ENPP4 (ectonucleotide pyrophosphatase/phosphodiesterase 4)
- viability hit class: no change
- caspase hit class: no change
- viability robust z-score: -0.02
- caspase robust z-score: -0.57
- Call: inactive

STX2 (syntaxin 2)
- viability hit class: no change
- caspase hit class: no change
- viability robust z-score: -1.12
- caspase robust z-score: 0.2
- Call: inactive

RALGAPA1 (Ral GTPase activating protein catalytic subunit alpha 1)
- viability hit class: no change
- caspase hit class: no change
- viability robust z-score: -1.67
- caspase robust z-score: 0.74
- Call: inactive
